These are yes or no findings as the source states them, for the method shown. In cells and extracts the contact can be indirect. Some binding calls cover weakened binding; strength is not graded here.
Molecular target: lamin A/C (mouse (endogenous in RAW264.7)) (UniProt P48678)
Test: co-IP; RAW264.7 cells exposed to S. stercoralis iL3 for the indicated periods; RIPA lysates immunoprecipitated with anti-lamin A/C antibody (2.5 μg/ml, 3-4 h, 4 °C), protein A+G agarose beads, washed 5 times with cold TBS; blot probed with anti-PKCζ, stripped and reprobed with anti-lamin A

Protein sequences, listed by entry. Tags and fused reporters are not part of them. Residues count along the entry.
UniProt P48678, residues 1-647: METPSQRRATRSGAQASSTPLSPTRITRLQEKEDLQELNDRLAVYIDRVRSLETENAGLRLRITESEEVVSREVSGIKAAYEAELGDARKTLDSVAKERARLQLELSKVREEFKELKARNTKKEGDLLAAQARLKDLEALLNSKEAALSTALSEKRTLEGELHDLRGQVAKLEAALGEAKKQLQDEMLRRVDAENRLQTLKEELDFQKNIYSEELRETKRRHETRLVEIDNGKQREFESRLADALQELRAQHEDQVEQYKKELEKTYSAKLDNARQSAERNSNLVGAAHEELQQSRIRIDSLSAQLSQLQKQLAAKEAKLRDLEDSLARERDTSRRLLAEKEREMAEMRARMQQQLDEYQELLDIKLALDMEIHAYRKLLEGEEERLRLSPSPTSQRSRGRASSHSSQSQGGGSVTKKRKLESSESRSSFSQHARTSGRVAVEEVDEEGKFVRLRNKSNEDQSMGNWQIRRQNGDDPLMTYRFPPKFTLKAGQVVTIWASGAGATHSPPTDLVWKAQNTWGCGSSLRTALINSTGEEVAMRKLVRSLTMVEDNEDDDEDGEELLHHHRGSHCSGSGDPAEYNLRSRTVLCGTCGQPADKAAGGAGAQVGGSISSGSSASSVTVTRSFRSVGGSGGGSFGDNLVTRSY

binding: binds
B1: protein kinase C zeta isoform (PKCζ) (enzyme, UniProt Q02956 1-592)
chain: MPSRTDPKMDRSGGRVRLKAHYGGDILITSVDAMTTFKDLCEEVRDMCGLHQQHPLTLKWVDSEGDPCTVSSQMELEEAFRLVCQGRDEVLIIHVFPSIPEQPGMPCPGEDKSIYRRGARRWRKLYRANGHLFQAKRFNRGAYCGQCSERIWGLSRQGYRCINCKLLVHKRCHVLVPLTCRRHMDSVMPSQEPPVDDKNDGVDLPSEETDGIAYISSSRKHDNIKDDSEDLKPVIDGVDGIKISQGLGLQDFDLIRVIGRGSYAKVLLVRLKKNDQIYAMKVVKKELVHDDEDIDWVQTEKHVFEQASSNPFLVGLHSCFQTTSRLFLVIEYVNGGDLMFHMQRQRKLPEEHARFYAAEICIALNFLHERGIIYRDLKLDNVLLDADGHIKLTDYGMCKEGLGPGDTTSTFCGTPNYIAPEILRGEEYGFSVDWWALGVLMFEMMAGRSPFDIITDNPDMNTEDYLFQVILEKPIRIPRFLSVKASHVLKGFLNKDPKERLGCRPQTGFSDIKSHAFFRSIDWDLLEKKQTLPPFQPQITDDYGLDNFDTQFTSEPVQLTPDDEDVIKRIDQSEFEGFEYINPLLLSAEESV

Source: publication PMC12592133
